These are yes or no findings as the source states them, for the method shown. Binding seen in cells or lysates may run through a third protein. Binding calls can cover weak binding; strength is not graded here. Sequences can lack the tags named with a protein.
Each substance was assayed against T1, HA-tagged full-length wild-type human Rev1 (human) (UniProt Q9UBZ9) (assay: co-IP; HA-tagged full-length Rev1 on anti-HA resins, extracts from transfected HEK293T cells expressing FLAG-tagged wild-type or mutant Polι; western blot).
T1 sequence: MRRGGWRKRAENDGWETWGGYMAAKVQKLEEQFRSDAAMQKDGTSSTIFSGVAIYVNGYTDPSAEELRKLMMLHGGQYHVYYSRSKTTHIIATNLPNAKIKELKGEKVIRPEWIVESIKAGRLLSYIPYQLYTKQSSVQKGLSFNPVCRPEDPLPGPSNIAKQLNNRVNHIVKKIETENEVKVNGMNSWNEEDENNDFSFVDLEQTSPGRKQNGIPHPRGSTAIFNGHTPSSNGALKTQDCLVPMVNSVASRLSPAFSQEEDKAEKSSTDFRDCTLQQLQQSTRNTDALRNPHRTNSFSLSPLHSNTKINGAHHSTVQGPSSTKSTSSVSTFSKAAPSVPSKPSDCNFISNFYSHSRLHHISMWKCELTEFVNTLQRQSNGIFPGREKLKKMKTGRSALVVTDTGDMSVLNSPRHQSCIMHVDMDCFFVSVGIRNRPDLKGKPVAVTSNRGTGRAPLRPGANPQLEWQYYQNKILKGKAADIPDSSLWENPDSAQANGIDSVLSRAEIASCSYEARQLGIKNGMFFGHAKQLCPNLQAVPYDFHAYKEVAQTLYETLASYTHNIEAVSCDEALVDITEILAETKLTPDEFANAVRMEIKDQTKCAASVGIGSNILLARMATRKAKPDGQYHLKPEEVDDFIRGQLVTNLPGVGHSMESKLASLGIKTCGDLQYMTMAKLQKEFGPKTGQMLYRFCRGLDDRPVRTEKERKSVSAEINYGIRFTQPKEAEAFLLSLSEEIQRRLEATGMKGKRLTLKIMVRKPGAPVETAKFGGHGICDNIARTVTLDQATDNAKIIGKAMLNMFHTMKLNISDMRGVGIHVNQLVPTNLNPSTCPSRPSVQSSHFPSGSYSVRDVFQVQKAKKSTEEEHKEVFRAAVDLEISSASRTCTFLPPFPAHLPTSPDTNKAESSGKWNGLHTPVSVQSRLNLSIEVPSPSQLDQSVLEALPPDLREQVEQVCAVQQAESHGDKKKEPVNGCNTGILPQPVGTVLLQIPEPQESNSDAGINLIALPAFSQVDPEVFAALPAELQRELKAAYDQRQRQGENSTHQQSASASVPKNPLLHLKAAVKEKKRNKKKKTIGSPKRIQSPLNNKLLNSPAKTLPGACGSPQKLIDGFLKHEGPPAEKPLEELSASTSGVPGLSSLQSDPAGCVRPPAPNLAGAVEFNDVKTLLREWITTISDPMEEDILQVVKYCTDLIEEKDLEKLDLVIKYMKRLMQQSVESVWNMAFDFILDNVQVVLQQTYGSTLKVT

Substance | binding
FLAG-Polι F546A/F547A (human) | no binding
FLAG-Polι K549Q/K550Q (human) | binds
FLAG-Polι K549R/K550R (human) | binds
FLAG-Polι K550Q (human) | binds
FLAG-Polι K550R (human) | binds
FLAG-tagged full-length human DNA polymerase iota (Polι) | binds
